According to article PMC4980550, “Structural Basis for Plexin Activation and Regulation” (Neuron, 2016):
Results are given in words; binding and its absence hold for the method and conditions named.

Sequences of proteins named here, by UniProt entry; tags and fusion partners are left off. A change or cut given only in a name is not applied to a line headed by its entry. A line that says so, or that is headed by a name, gives the form on record, which may keep a tag or linker.
PlxnA1_(1-10) F145N/L147S (P70206, form named): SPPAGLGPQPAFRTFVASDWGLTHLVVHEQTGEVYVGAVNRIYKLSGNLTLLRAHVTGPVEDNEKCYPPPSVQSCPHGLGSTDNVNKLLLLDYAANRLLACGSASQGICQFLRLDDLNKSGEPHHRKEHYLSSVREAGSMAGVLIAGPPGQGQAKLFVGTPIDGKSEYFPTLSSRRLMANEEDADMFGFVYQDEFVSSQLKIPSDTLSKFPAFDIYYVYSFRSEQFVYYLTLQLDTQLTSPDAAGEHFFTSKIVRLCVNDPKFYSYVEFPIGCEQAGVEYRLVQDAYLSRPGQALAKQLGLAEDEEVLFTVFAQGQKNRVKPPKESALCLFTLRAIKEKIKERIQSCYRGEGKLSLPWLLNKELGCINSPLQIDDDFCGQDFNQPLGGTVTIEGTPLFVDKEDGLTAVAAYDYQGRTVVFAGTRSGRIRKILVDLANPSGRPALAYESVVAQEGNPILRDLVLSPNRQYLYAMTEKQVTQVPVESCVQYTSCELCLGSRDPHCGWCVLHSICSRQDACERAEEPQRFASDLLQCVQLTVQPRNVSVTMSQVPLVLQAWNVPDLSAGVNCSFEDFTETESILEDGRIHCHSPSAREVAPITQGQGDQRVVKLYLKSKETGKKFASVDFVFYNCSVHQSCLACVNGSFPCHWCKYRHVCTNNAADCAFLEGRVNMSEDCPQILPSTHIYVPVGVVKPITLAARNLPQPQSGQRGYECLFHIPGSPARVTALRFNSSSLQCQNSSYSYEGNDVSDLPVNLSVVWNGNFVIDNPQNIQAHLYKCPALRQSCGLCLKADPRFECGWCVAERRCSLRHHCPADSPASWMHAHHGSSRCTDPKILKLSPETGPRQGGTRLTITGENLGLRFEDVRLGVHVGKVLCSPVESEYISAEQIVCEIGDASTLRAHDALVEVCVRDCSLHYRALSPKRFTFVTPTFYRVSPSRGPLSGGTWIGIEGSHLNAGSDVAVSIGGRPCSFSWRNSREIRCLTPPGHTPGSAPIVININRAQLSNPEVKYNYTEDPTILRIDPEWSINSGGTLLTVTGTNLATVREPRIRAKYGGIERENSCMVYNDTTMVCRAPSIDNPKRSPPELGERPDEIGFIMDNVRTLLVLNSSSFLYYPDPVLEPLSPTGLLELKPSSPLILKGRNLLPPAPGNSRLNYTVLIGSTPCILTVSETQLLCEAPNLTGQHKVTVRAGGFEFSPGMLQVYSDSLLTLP
PlxnA1_(1-10) F693N/E695S (P70206, form named): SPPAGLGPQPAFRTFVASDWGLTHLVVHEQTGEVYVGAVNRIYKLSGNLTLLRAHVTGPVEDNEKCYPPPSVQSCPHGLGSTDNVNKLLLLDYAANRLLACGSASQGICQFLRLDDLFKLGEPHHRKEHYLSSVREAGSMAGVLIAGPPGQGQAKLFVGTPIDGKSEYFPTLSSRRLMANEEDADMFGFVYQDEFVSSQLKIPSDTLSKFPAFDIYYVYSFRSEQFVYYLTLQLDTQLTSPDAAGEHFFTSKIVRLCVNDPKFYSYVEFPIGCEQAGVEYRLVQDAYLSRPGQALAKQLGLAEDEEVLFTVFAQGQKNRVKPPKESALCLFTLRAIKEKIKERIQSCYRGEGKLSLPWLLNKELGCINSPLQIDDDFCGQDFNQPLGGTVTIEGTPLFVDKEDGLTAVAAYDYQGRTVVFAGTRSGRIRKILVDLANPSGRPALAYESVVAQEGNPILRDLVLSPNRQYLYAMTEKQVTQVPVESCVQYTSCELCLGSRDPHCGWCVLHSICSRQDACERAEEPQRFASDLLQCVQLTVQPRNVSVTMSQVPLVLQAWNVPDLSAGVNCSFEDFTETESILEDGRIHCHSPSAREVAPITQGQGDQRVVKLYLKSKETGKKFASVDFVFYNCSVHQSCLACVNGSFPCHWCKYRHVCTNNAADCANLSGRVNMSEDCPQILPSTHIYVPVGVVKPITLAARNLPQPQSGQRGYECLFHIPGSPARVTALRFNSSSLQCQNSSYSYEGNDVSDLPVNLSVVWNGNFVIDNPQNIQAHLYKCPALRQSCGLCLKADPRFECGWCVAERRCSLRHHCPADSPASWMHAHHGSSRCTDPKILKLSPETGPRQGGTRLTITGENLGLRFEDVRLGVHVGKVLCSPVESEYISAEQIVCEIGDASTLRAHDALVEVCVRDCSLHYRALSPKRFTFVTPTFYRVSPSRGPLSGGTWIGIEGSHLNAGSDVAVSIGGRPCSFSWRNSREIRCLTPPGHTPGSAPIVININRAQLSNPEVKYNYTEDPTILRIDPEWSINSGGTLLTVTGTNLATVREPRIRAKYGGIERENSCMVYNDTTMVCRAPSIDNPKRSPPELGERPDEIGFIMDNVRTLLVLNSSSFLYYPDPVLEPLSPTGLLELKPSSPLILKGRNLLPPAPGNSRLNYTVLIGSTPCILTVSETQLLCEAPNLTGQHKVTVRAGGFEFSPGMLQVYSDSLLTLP

Legend:
[1] = biological target: PlxnA1_(1-10) F145N/L147S (mouse) (UniProt P70206); assay: SEC-MALS; analytical Superdex S200 10/30 column coupled to static light-scattering, differential refractive index and UV detectors; both purified
[2] = biological target: PlxnA1_(1-10) F693N/E695S (mouse) (UniProt P70206); assay: as above
[3] = biological target: PlxnA1_(1-10) F693N/E695S (mouse) (UniProt P70206); assay: AUC; sedimentation velocity, 40,000 rpm, absorbance at 280 nm, c(s) analysis; protein at 7.0 μM (1 mg/ml); both purified
[4] = biological target: PlxnA1_(1-10) F693N/E695S (mouse) (UniProt P70206); assay: AUC; sedimentation velocity, 40,000 rpm, absorbance at 280 nm, c(s) analysis; protein at 28.1 μM (4 mg/ml); both purified

Substance | binding [1] | binding [2] | binding [3] | binding [4]
PlxnA1_(1-10) F145N/L147S (from UniProt P70206 28-1242) (domain or fragment) | no binding | – | – | –
PlxnA1_(1-10) F693N/E695S (from UniProt P70206 28-1242) (domain or fragment) | – | no binding | no binding (tested: 7.0 μM) | no binding (tested: 28.1 μM)
